In all, about 33,000 sequences were measured (“E-score (-0.5 to 0.5)”: median about -0.0059, highest 2% from about 0.26 on). This is one part of the list.
What follows are sequences tested against T1, Cin5 (UniProt P40917) (assay: PBM E-score (8-mer binding enrichment) (E-score (-0.5 to 0.5)); higher = stronger / more preferred TF binding). Conditions: protein concentration: 100 nM; construct: GST-full length.
T1 sequence: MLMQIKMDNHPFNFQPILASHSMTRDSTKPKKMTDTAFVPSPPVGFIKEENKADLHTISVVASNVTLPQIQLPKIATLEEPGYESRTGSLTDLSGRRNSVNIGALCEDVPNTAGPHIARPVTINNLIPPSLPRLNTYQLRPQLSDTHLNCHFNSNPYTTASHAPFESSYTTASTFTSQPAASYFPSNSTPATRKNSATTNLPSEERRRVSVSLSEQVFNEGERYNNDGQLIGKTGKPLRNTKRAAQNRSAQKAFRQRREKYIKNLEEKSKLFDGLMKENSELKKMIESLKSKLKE
In short: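 Bound GST-tagged yeast transcription factors, applied at about 100-200 nM to double-stranded universal all-10-mer Agilent arrays, were detected with fluorescent anti-GST. Scans were normalised with masliner. A modified Wilcoxon-Mann-Whitney statistic, the E-score, was assigned to each ungapped eight-base word pooled with its reverse complement by the Universal PBM Analysis Suite.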

Sequence	PBM E-score
CCACACGA	-0.0307
CGTTTGAG	-0.0334
GAACTTCC	-0.0174
TGGTATAA	0.167
AGATATCA	0.193
CATAACGC	0.0116
CATAGCGC	0.139
GTAATTGA	0.159
GATTTACC	0.146
CTAGCTAC	-0.176
ATGGCAAT	0.113
GACCGGGA	-0.139
AATGTCCA	-0.0175
CAAATTCA	-0.0144
AACAAGCT	0.053
GTTTGGGA	0.0363
ACACCACT	0.245
CCACCCGC	-0.0493
GATTCAAA	0.0509
CATCCCAC	-0.0487
GATAGTGC	-0.051
ACTAATGG	0.0831

Sequence	PBM E-score
CAGAGCCG	-0.0563
CGGCGCCA	-0.132
ACGCCCCG	-0.123
CCTGACAC	0.0704
ATACCTAG	0.103
AAGAGGAG	-0.205
AGTGTGTA	0.179
CACCTTTA	-0.0895
GAGTTATC	0.155
CTCATCTA	-0.0299
ACACTCGT	-0.018
AACATTAA	0.114
TACCGGGA	0.0375
AGTACAGA	0.0247
CGAATCAG	0.0186
ACCGCATC	-0.0146
AGATCACC	-0.0322
CGCGATTC	0.124
AGCACTGG	-0.083
GATCCAAA	0.146
CCACTGAG	-0.213
TACTACTA	0.248

Sequence	PBM E-score
AGCTCACC	-0.0382
ACAACCAT	0.306
AGTCCGAG	0.0777
CTGTGGGA	-0.0973
CTAATTTC	0.0506
GCGATAGC	-0.0267
TAGAGAAA	-0.0181
CAAATACA	0.202
GCTTCATA	0.0833
AAGCAAAA	0.111
CACACGGG	-0.117
AATACAAG	0.294
CAGCTCCA	-0.00403
CCGCCCCC	-0.375
CTCGAAAC	0.053
CAGCGGGC	-0.0249
CAAACAGG	-0.15
AAAAACTT	-0.0892
CCTGCTCC	-0.132
AATCATGA	0.186
AATAAAAG	0.0785
CCAAGTCA	0.0677

Sequence	PBM E-score
TCAAGACA	0.0207
AGTTTGGC	0.0472
GGGACTCA	-0.303
TCGCACGA	-0.104
CAGATTCG	-0.00465
CCAGACCC	-0.233
ACCAGATG	-0.091
CCGAGGGA	-0.287
GGTGACAC	-0.0788
AGGCGCCA	-0.0123
CGGGCCCC	-0.12
CGCTCTGC	-0.13
AACTCGTA	0.219
ATTTCCTC	0.09
CATAGCGG	-0.139
AACGCACA	0.0815
GCCGCGGC	0.214
ATCATGGA	-0.00019
CGAGAAAG	0.0439
AAGTTTGC	0.19

From the supplement of paper PMC3334620
